From US20250136695A1
Results are given in words; binding and its absence hold for the method and conditions named. Some binding calls cover weakened binding; strength is not graded here. Where a sequence is shown, tags or fusion partners need not be part of it.

By UniProt entry, the sequences of proteins in these tests, tags left out. Residues count along the entry.
UniProt Q9NZQ7, residues 19-290: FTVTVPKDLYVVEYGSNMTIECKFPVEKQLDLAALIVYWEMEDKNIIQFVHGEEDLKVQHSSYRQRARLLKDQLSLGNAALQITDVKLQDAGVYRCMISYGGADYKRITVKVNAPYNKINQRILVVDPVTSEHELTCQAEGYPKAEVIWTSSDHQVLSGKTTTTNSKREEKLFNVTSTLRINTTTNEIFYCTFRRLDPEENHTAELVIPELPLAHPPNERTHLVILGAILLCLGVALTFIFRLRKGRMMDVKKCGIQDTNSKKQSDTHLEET

How the values were obtained:
[1] = biological target: PDL1 expressed on recombinant CHO cells (CHO-K1/PDL1; aAPC CHO-PDL1) (UniProt Q9NZQ7); assay: flow cytometry, purified antibody in four 5-fold dilutions from 10 µg/mL on CHO-K1/PDL1 cells
[2] = biological target: PDL1 expressed on recombinant CHO cells (CHO-K1/PDL1; aAPC CHO-PDL1) (UniProt Q9NZQ7); assay: flow cytometry, transient expression supernatant on CHO-K1/PDL1 cells, labelled anti-human IgG

| Binder | binding [1] | binding [2] |
| --- | --- | --- |
| 17-A06 (VHH fused to human IgG1 Fc) (Fc fusion, not shown: a dimerising Fc or GST) MAQVKLEESGGGLVQAGGSLRLSCVASGRSFITYAVGWFRQAPGKEREFVASINWSGAMTYYTDSVNGRFAISRDNAKNTVYLQMNNLKLEDTAVYYCASTISAVTPTNGYQNWGQGTQVTVSS | binds | binds |
| 29-H9 (VHH fused to human IgG1 Fc) (Fc fusion, not shown: a dimerising Fc or GST) RLQLVESGGGLVQAGGSLRLSCAASGFTFSTYAMSWYRGVPEKERELVAFISSDGGGTTYRDSVKGRFTISRDNGKNTVYLQMNSLKPEDTGVYYCARGLAQIWGQGTQVTVSS | binds | binds |
| 17-A01 (VHH fused to human IgG1 Fc) (Fc fusion, not shown: a dimerising Fc or GST) MAAVQLVDSGGGLVQPGGSLRLSCAASGRTFGFYGWFRQAPGKEREFVAAITWGGSAISYEDSAKGRFTISRDNAKNTVYLQMNSLKPEDTAVYYCARSTRVTTNPREYDYWGQGTQVTVSS | binds | binds |

The next lines start with the values.

| binding [1] | binding [2] | Binder |
| --- | --- | --- |
| binds | binds | 23-G3 (VHH fused to human IgG1 Fc) (Fc fusion, not shown: a dimerising Fc or GST) MAAVQLVESGGGLVQAGGSLRLSCVASGRSFITYAVGWFRQAPGKEREFVASVNWSGAMTYYADAVNGRFTISRDNAKNTVYLQMNNLKLEDTAVYYCAATISAVTPTNGYQNWGQGTQVTVSS |
| binds | binds | 17-G06 (VHH fused to human IgG1 Fc) (Fc fusion, not shown: a dimerising Fc or GST) MAAVQLVESGGGLVQPGGSLRLSCAASGRTFGFYGWFRQAPGKEREFVAAITWGGSAISYDDSAKGRFTISRDNAKNTVYLQMNSLKPEDTAVYYCARSMRVTTNPREYDYWGQGTQVTVSS |
| binds | binds | 17-C12 (VHH fused to human IgG1 Fc) (Fc fusion, not shown: a dimerising Fc or GST) MAQVKLEESGGGLVQPGGSLTLSCAASGRTFGFYGWFRQAPGKEREFVAGITWGGSVTSYADSVKGRFTISRDNAKNTVYLQMNSLKPENTAVYYCARSPRVTTTPREFDVWGQGTQVTVSS |
